Measured values taken from the supplement of paper PMC8728848.
The list shows a part of the results.

What was measured:
Assay in all cases: glycan array binding signal (z-score within array); higher = stronger binding
Details in all cases: glycan notation: IUPAC condensed, linker removed
[1] = target: Neu5Ac9Ac(a2-3)Gal(b1-4)GlcNAc
Summary of the method: (§1)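 Arrays were curated from the Consortium for Functional Glycomics database, 3228 in total, and kept only where the protein sequence was available. Binding is expressed as a within-array Z-score. This score was averaged across arrays of the same protein sequence at different concentrations or buffers and across linkers, and negative values can be read as non-binding.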

[2] = target: Neu5Ac9Ac(a2-6)Gal(b1-4)GlcNAc
Summary of the method: as §1

[3] = target: Neu5Gc(a2-3)Gal(b1-3)GlcNAc
Summary of the method: as §1

[4] = target: Neu5Gc(a2-3)Gal(b1-3)[Fuc(a1-4)]GlcNAc
Summary of the method: as §1

[5] = target: Neu5Gc(a2-3)Gal(b1-4)Glc
Summary of the method: as §1

[6] = target: Neu5Gc(a2-3)Gal(b1-4)GlcNAc
Summary of the method: as §1

[7] = target: Neu5Gc(a2-3)Gal(b1-4)[Fuc(a1-3)]GlcNAc
Summary of the method: as §1

[8] = target: Neu5Gc(a2-6)Gal(b1-4)GlcNAc
Summary of the method: as §1

[9] = target: Neu5Gc(a2-6)GalNAc
Summary of the method: as §1

[10] = target: Neu5Gc(b2-6)Gal(b1-4)GlcNAc
Summary of the method: as §1

B1: PGP3 (Chlamydia trachomatis), P0CE18 (protein)
chain: MGNSGFYLYNTQNCVFADNIKVGQMTEPLKDQQIILGTTSTPVAAKMTASDGISLTVSNNPSTNASITIGLDAEKAYQLILEKLGDQILGGIADTIVDSTVQDILDKITTDPSLGLLKAFNNFPITNKIQCNGLFTPRNIETLLGGTEIGKFTVTPKSSGSMFLVSADIIASRMEGGVVLALVREGDSKPYAISYGYSSGVPNLCSLRTRIINTGLTPTTYSLRVGGLESGVVWVNALSNGNDILGITNTSNVSFLEVIPQTNA
What does the source list for B1?
glycan array binding signal (z-score) [1]: 1.72; glycan array binding signal (z-score) [2]: 0.589; glycan array binding signal (z-score) [3]: 0.962; glycan array binding signal (z-score) [4]: 2.46; glycan array binding signal (z-score) [5]: 1.1; glycan array binding signal (z-score) [6]: 0.126; glycan array binding signal (z-score) [7]: 1.36; glycan array binding signal (z-score) [8]: -1.74; glycan array binding signal (z-score) [9]: 1.37; glycan array binding signal (z-score) [10]: -1.1
